Reference: publication PMC1472690

The chains behind the UniProt entries cited, without tags or fusion partners.
UniProt Q04206, whole entry: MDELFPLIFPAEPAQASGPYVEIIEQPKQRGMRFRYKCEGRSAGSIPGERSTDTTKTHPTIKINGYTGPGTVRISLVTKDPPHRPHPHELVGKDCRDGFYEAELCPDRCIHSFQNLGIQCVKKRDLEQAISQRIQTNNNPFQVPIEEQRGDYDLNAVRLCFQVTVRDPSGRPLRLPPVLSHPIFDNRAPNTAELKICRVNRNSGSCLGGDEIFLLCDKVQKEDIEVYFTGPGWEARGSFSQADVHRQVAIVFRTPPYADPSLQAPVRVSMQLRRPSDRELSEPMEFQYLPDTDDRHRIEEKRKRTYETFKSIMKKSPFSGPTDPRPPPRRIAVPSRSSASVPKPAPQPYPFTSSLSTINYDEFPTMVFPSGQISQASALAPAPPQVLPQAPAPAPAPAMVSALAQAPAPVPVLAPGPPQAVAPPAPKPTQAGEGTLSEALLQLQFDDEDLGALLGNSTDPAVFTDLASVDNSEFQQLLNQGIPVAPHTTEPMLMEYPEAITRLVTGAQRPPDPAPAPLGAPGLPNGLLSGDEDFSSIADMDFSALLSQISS

Experiments:
NF-kB p50 (Homo sapiens) = target: T1, NF-kB p50 (Homo sapiens) (UniProt P19838); test: EMSA supershift; conditions: PBMC nuclear extract, glucan phosphate 1 h, anti-p50, lesser degree than p65; EMSA with PBMC nuclear extracts and 32P-labelled ds oligos; protein in an extract; label: 5'-32P
T1 sequence (looked up, limits assumed): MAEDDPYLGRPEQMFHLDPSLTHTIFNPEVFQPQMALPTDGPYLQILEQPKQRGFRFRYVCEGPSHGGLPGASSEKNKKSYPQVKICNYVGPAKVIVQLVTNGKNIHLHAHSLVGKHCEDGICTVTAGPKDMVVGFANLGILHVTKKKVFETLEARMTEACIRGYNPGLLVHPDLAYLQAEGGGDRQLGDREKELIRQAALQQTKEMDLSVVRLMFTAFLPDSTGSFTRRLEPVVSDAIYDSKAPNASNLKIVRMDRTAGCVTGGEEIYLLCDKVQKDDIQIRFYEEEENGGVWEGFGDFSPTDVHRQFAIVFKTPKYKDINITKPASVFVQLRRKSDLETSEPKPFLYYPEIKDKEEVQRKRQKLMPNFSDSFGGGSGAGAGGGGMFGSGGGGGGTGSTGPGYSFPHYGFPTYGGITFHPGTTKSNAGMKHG

NF-kB p65 (Homo sapiens) = NF-kB p65 (Homo sapiens) (UniProt Q04206); test: EMSA supershift; conditions: PBMC nuclear extract, glucan phosphate 1 h, anti-p65, predominant; EMSA with PBMC nuclear extracts and 32P-labelled ds oligos; protein in an extract; label: 5'-32P

Which results are given for “ATCGTGGAATTTCCTCTGA (double strand) [IL-8kBcS (NFkB consensus, IL-8 promoter)]”?
binding result (NF-kB p50 (Homo sapiens)): binds more weakly; binding result (NF-kB p65 (Homo sapiens)): binds

For at least one entry, the source does not settle the construct or the ends of the probe. At least one result comes from cells or an extract, where the contact may be indirect. For some assays here: Weaker means in comparison with the reference protein, sequence or condition of that experiment. For some assays here: Protein sequences can lack the tags named with them.
